These are yes or no findings as the source states them, for the method shown. Binding seen in cells or lysates may run through a third protein. These calls come from enrichment with a bait or labelling near it, and not all partners need be listed. Where a sequence is shown, tags or fusion partners need not be part of it.
T1: eGFP-HadA (HadA subunit of the FAS-II (3R)-hydroxyacyl-ACP dehydratase HadAB, Rv0635) (M. tuberculosis H37Rv) (UniProt P9WFK1)
T1 sequence: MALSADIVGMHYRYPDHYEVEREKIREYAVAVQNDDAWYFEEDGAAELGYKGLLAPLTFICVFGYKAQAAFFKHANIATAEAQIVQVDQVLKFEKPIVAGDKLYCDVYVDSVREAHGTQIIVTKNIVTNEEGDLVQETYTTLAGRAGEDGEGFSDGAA

B1: HadB (catalytic subunit of the FAS-II dehydratases HadAB and HadBC, Rv0636) (protein, UniProt I6WYY7 1-142)
chain: MALREFSSVKVGDQLPEKTYPLTRQDLVNYAGVSGDLNPIHWDDEIAKVVGLDTAIAHGMLTMGIGGGYVTSWVGDPGAVTEYNVRFTAVVPVPNDGKGAELVFNGRVKSVDPESKSVTIALTATTGGKKIFGRAIASAKLA
B2: HadD (MSMEG_0948 protein) (protein, UniProt A0QR13 1-177)
chain: MSIAANIIGTHYRYPDYFEVGREKVREFSAAVKDDHPAHFDEAAAKECGHDNLIAPLTFLAVAGRRVQLDLFDKFDVPINLERVLHRDQKLIFHRPIVVGDKLWFDSYLDSVIESHGTVICEIRAEVTDDDGKPVATSIVTMLGEAEIDEADEISSQIAAARDAAIAKMVAGQKSSS

Molecular target: T1, eGFP-HadA (HadA subunit of the FAS-II (3R)-hydroxyacyl-ACP dehydratase HadAB, Rv0635) (M. tuberculosis H37Rv)
Assay: affinity purification with mass spectrometry

Binder | binding
B1 | binds
B2 | binds
